Results are given in words; binding and its absence hold for the method and conditions named. For some assays here: Where a sequence is shown, tags or fusion partners need not be part of it.
Tests used:
[1] = biological target: T1, dN36-MepS (residues 37-162) (E. coli) (UniProt P0AFV4); assay: condition: 30 µM MepS protein in the cell, 300 or 600 µM NlpI in the syringe; ITC; NlpI (or NlpI-ΔN) in the syringe, 300 or 600 µM, injected into 30 µM MepS protein in the cell; 20 °C; 20 mM HEPES pH 7.5, 300 mM NaCl, 2 mM β-mercaptoethanol; one set of sites model; three experiments and their average; both purified
T1 sequence: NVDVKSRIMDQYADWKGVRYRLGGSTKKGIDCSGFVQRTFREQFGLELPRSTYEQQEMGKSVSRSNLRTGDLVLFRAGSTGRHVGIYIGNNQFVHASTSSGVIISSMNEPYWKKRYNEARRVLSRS

Protein sequences, listed by entry. Tags and fused reporters are not part of them. Residues count along the entry.
UniProt P0AFB1, residues 20-294: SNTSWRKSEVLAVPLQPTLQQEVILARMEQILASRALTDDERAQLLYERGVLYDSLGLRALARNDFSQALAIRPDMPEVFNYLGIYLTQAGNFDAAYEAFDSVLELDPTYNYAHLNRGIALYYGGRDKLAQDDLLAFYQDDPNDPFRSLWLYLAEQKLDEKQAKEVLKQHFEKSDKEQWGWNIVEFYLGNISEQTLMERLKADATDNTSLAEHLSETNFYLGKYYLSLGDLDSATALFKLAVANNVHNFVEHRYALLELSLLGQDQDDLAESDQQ

[2] = biological target: T2, dN36-His, His-tagged dN36-MepS used as bait in the Ni-NTA pull-down (E. coli) (UniProt P0AFV4); assay: pull-down; 19 µM His-tagged MepS protein and 2 µM untagged NlpI with Ni-NTA resin overnight at 4 °C; 500 mM NaCl, 25 mM NaPi, 5% glycerol, 5 mM β-mercaptoethanol, pH 8.0; wash 20 mM imidazole, elution 400 mM imidazole; Coomassie SDS-PAGE; both purified
T2 sequence: T1 sequence

| binding [1] | Substance | binding [2] |
| --- | --- | --- |
| no binding | NlpI (residues 20-294, without the lipoprotein signal peptide) (from UniProt P0AFB1 20-294) |  |
|  | untagged NlpI (residues 20-294) used in the Ni-NTA pull-down (from UniProt P0AFB1 20-294) | no binding (tested: 19 µM MepS protein, 2 µM NlpI) |
